The values that follow come from patent US5338726A (Abbott Laboratories, priority 1992, dated 1994).

This data set is described as follows: general procedure: solution-phase peptide synthesis.

Several values for one entry are separate records, joined by “and”; a condition that tells them apart may be missing. Identical values can stand only once.

Substance “N-(3 -(Methoxycarbonyl) propionyl)-Isoleucyl-Isoleucyl-Statyl-Valyl Benzyl ester” gave a step yield (coupling step) of 80%. With “N-Boc-Isoleucyl-Isoleucyl-Statyl-β-Alanyl Ethyl ester”, the step yield (coupling step, run 1) is 82% and 41%. “N-Boc-Isoleucyl-Isoleucyl-Statyl-β-Alanyl-OH” displayed a step yield (late stage modification step) of 71%.

“N-Succinyl-Isoleucyl-Isoleucyl-Statyl-Valyl-OH”: the step yield (late stage modification step) is recorded as 57%. As for “N-[(4S)-4-(N-Boc-Aspartyl(β-O-Benzyl)-Isoleucyl-Isoleucyl-Amino)-5-(3- indolyl) -3-hydroxypentanoyl]-Valyl Benzyl ester”, the step yield (coupling step) came to 33%. Same read-out and setting: then “N-[(4S)-4-(N-Boc-Cyclohexylalanyl-Isoleucyl-Amino)-5-(3-indolyl)-3-hydroxypentanoyl]-Valyl Benzyl ester”, with 30%; and “N-[(4S)-4-(N-Boc-Isoleucyl-Isoleucyl-Amino)-5-(3-indolyl)-3-hydroxypentanoyl]-Valyl Benzyl ester”, with 47%.
